For one molecule, binding results are on record in article PMC10651854.

In this assay the target is circHECTD1-encoded functional peptide 463aa (human (endogenous in GBM cells)). Nature of the assay: affinity purification with mass spectrometry; IP of 463aa combined with MS analysis; proteins separated by SDS-PAGE, bands cut out, timsTOF pro mass spectrometer.

Results are given in words; binding and its absence hold for the method and conditions named. Binding seen in cells or lysates may run through a third protein. Here binding means that the protein was enriched with, or labelled near, the bait; the list need not be complete.

B1: Nuclear receptor subfamily 2 group F member 1 (NR2F1) (protein, UniProt P10589 1-423)
chain: MAMVVSSWRDPQDDVAGGNPGGPNPAAQAARGGGGGAGEQQQQAGSGAPHTPQTPGQPGAPATPGTAGDKGQGPPGSGQSQQHIECVVCGDKSSGKHYGQFTCEGCKSFFKRSVRRNLTYTCRANRNCPIDQHHRNQCQYCRLKKCLKVGMRREAVQRGRMPPTQPNPGQYALTNGDPLNGHCYLSGYISLLLRAEPYPTSRYGSQCMQPNNIMGIENICELAARLLFSAVEWARNIPFFPDLQITDQVSLLRLTWSELFVLNAAQCSMPLHVAPLLAAAGLHASPMSADRVVAFMDHIRIFQEQVEKLKALHVDSAEYSCLKAIVLFTSDACGLSDAAHIESLQEKSQCALEEYVRSQYPNQPSRFGKLLLRLPSLRTVSSSVIEQLFFVRLVGKTPIETLIRDMLLSGSSFNWPYMSIQCS
B1: the binding result is listed as “binds”.
